Data: patent publication US11426357B2, “Mangiferin encapsulated gold nanoparticles, fabrication methods and cancer therapeutic methods” (priority 2016, dated 2022)
For at least one compound, name, drawing or mass did not settle the structure.

Assays:
[1] = test system: HAECs; experiment: In vitro anti-angiogenesis tube/capillary formation assay; assay type: cell-based; conditions: pre-incubation of HAECs, 40 μM, phase contrast microscopy
[2] = test system: PC-3 cells; experiment: Measurement of reactive oxygen species (DCFH-DA); assay type: cell-based, human

## O=c1c2cc(O)c(O)cc2oc2cc(O)c([C@@H]3O[C@H](CO)[C@@H](O)[C@H](O)[C@H]3O)c(O)c12 [MGF, 1,3,6,7-tetrahydroxyxanthone-C2-D glucoside]
[1]
  formation of capillaries / vasculature: complete vasculature was observed
[2]
  inhibition of ROS production: effective in inhibiting ROS production
